{"source": "PubChem BioAssay AID504808 (Drosophila RNAi Screening Center, 2011)", "test": "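Chromatin factors that keep E2F targets switched off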 (primary screen)", "cell system": "Drosophila S2 cells", "reagent": "long dsRNA against Drosophila genes", "read-out": "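Dual luciferase plate measurements; E2F-specific signal taken as firefly over Renilla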", "direction": "E2F firefly: higher = more E2F reporter activity; Renilla normaliser: higher = more normaliser reporter signal", "rule for the call": "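a knock-down counted as active when the firefly/Renilla E2F signal rose above 50%, a threshold chosen arbitrarily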", "note": "In all, the deposit lists about 21,000 reagents; shown is a random part of those with a known target gene and a result. Of all reagents, 18 (0.084%) were called active. 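Raw counts without plate normalisation, one of two replicates; the ratio scores behind the calls were not deposited.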 Entries without a mark were called inactive. A plus sign joins genes that one reagent is predicted to hit. Not given: the amount of reagent, the time to read-out."}
{"target gene": "CG14861", "amplicon": "DRSC14984", "E2F firefly, rep 1": 1.16e5, "Renilla normaliser, rep 1": 6055}
{"target gene": "CG1113", "amplicon": "DRSC12163", "E2F firefly, rep 1": 1.31e5, "Renilla normaliser, rep 1": 6460}
{"target gene": "CG1440", "amplicon": "DRSC17915", "E2F firefly, rep 1": 1.35e5, "Renilla normaliser, rep 1": 6084}
{"target gene": "mRRF2", "amplicon": "DRSC16143", "E2F firefly, rep 1": 1.01e5, "Renilla normaliser, rep 1": 7376}
{"target gene": "Cyp4d2", "amplicon": "DRSC18458", "E2F firefly, rep 1": 1787, "Renilla normaliser, rep 1": 884}
{"target gene": "nom", "amplicon": "DRSC16389", "E2F firefly, rep 1": 1.38e5, "Renilla normaliser, rep 1": 6681}
{"target gene": "CG17855", "amplicon": "DRSC02638", "E2F firefly, rep 1": 1.68e5, "Renilla normaliser, rep 1": 5987}
{"target gene": "Aptx", "amplicon": "DRSC15768", "E2F firefly, rep 1": 1.40e5, "Renilla normaliser, rep 1": 6790}
{"target gene": "CG13376", "amplicon": "DRSC17901", "E2F firefly, rep 1": 1.14e5, "Renilla normaliser, rep 1": 5829}
{"target gene": "CG1271", "amplicon": "DRSC08290", "E2F firefly, rep 1": 74646, "Renilla normaliser, rep 1": 3566}
{"target gene": "Snx17", "amplicon": "DRSC02884", "E2F firefly, rep 1": 85917, "Renilla normaliser, rep 1": 3401}
{"target gene": "ord", "amplicon": "DRSC04706", "E2F firefly, rep 1": 1.09e5, "Renilla normaliser, rep 1": 4352}
{"target gene": "NKAIN", "amplicon": "DRSC04531", "E2F firefly, rep 1": 78012, "Renilla normaliser, rep 1": 3418}
{"target gene": "Coq7 + shf", "amplicon": "DRSC18448", "E2F firefly, rep 1": 1.29e5, "Renilla normaliser, rep 1": 6676}
{"target gene": "IntS11", "amplicon": "DRSC15407", "E2F firefly, rep 1": 1696, "Renilla normaliser, rep 1": 952}
{"target gene": "RpL22-like", "amplicon": "DRSC04582", "E2F firefly, rep 1": 1.04e5, "Renilla normaliser, rep 1": 4587}
{"target gene": "CG31051", "amplicon": "DRSC15034", "E2F firefly, rep 1": 1753, "Renilla normaliser, rep 1": 920}
{"target gene": "Ten-a", "amplicon": "DRSC18924", "E2F firefly, rep 1": 82861, "Renilla normaliser, rep 1": 2405}
{"target gene": "Ten-a", "amplicon": "DRSC19496", "E2F firefly, rep 1": 47816, "Renilla normaliser, rep 1": 3763}
{"target gene": "Ten-a", "amplicon": "DRSC19700", "E2F firefly, rep 1": 1.36e5, "Renilla normaliser, rep 1": 6784}
{"target gene": "Ten-a", "amplicon": "DRSC19793", "E2F firefly, rep 1": 1.30e5, "Renilla normaliser, rep 1": 6102}
{"target gene": "Ten-a", "amplicon": "DRSC19864", "E2F firefly, rep 1": 1.22e5, "Renilla normaliser, rep 1": 6337}
{"target gene": "Ten-a", "amplicon": "DRSC19865", "E2F firefly, rep 1": 1.58e5, "Renilla normaliser, rep 1": 6318}
{"target gene": "Ten-a", "amplicon": "DRSC20290", "E2F firefly, rep 1": 1.30e5, "Renilla normaliser, rep 1": 6065}

Limited to “Renilla normaliser, rep 1” (3 entries from above):
Ten-a [DRSC18924]	2405
Ten-a [DRSC19496]	3763
Ten-a [DRSC19700]	6784
